Publication PMC7017634

The chains behind the UniProt entries cited, without tags or fusion partners. Where a name states a change or a piece, a line headed by the entry shows the natural chain unless it says otherwise.
UniProt O43602: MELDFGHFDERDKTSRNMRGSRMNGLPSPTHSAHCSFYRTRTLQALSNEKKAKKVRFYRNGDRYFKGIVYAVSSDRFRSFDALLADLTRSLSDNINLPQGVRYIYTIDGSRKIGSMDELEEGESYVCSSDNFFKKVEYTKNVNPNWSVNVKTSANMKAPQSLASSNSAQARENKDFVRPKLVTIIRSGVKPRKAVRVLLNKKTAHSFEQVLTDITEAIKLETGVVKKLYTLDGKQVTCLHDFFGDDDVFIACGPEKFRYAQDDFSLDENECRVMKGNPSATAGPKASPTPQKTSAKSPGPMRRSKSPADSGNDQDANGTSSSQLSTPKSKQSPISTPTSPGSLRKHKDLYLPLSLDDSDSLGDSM
UniProt P52294: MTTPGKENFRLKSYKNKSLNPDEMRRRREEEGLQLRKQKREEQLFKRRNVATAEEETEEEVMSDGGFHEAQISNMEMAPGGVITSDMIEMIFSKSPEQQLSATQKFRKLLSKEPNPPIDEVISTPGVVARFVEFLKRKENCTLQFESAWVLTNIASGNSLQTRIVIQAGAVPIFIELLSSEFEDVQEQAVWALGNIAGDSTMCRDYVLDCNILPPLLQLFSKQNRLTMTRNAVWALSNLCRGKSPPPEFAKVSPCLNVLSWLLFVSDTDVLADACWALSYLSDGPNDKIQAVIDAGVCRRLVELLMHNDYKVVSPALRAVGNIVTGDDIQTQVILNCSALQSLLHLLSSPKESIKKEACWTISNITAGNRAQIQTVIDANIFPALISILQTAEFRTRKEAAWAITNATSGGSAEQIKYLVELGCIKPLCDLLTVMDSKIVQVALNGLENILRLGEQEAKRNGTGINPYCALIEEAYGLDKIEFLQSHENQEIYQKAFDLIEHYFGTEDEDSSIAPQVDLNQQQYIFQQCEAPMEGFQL
UniProt Q14974: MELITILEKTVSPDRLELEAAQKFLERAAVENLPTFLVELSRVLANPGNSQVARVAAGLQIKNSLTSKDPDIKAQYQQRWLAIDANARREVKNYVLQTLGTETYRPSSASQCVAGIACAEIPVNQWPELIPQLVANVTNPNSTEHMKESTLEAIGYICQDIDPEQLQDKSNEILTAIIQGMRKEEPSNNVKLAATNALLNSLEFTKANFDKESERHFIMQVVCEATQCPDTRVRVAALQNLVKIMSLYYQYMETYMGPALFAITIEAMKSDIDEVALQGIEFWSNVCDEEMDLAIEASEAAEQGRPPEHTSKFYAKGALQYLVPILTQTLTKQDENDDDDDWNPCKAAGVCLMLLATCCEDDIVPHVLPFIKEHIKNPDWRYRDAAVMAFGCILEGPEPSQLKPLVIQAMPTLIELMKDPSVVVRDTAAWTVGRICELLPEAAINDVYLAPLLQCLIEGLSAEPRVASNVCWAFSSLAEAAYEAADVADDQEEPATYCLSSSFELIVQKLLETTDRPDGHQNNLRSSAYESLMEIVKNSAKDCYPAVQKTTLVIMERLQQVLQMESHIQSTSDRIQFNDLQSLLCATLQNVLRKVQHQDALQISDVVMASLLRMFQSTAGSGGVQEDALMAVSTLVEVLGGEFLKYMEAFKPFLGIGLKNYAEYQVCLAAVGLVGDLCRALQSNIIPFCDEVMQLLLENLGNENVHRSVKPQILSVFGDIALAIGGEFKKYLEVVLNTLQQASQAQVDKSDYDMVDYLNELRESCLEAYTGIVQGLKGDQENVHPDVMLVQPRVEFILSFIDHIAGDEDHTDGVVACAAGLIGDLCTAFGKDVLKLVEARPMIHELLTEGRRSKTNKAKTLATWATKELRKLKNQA

Molecular target: DCXNLS1-del (UniProt O43602)
Assay: co-IP; lysates of stable cells expressing the DCX vector or DCX NLS mutants

Substance | binding
importin-α, endogenous in the cells with DCX vectors (from UniProt P52294 1-538) | binds
importin-β, endogenous in the cells with DCX vectors (from UniProt Q14974 1-876) | binds

No constants are given. Whether binding was seen depends on the method and setting. Binding seen in cells or lysates may run through a third protein. Binding can be weak; no strength is given.
